# Data as given in patent publication US8980543B2 (Canon Kabushiki Kaisha, priority 2007, dated 2015).
# Test: general procedure: Fmoc solid-phase peptide synthesis; Rink amide resin; HBTU/HOBt/DIEA
# Settings: whole synthesis, scale 0.2 mmol
substance,measurement,value
H-GPLGVRGK-NH2,isolated mass,93 mg
same,isolated yield,60%
